# Experimental data as given in CN114685666A.
# Amino acid sequences for entries named in this document (tags omitted). A change or cut given only in a name is not applied to a line headed by its entry. Chains listed by the source or under a name are the forms on record and can include a tag or linker.
# 人MSLN.His抗原 (MSLN.His蛋白, 义翘神州科技股份有限公司, MSN-H5223) (Q13421, form named): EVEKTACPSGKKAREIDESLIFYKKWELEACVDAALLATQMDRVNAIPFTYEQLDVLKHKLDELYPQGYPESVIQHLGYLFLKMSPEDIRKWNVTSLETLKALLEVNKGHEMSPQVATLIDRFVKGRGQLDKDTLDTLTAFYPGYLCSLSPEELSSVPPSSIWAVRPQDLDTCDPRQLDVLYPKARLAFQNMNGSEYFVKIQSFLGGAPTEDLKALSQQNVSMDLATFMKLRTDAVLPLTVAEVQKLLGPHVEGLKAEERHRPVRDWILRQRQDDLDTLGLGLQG
# No constants are given. Whether binding was seen depends on the method and setting. Some entries that bind do so weakly or less than the wild type.
# B1: M2339 纳米抗体克隆 (VHH expressed in TG1 after phage panning) (VHH)
# VHH: QLQLGASGGGLVQPGGSLRLSCALSGFTLRELDEFAIGWFRQAPGKEREGVSCISGTGGITHYADSVKGRFTISRDIAKTTVYLQMNSLNSEDTAVYYCAADERCTDRLIRPPTYWGQGTQVTVSS
# Biological target: 人MSLN.His抗原 (MSLN.His蛋白, 义翘神州科技股份有限公司, MSN-H5223) (human) (UniProt Q13421)
# Assay: ELISA screening of TG1 supernatants after phage panning, sequence analysis
binder,measurement,value
B1,binding,binds
